Patent US20240390487A1, “TLR AGONISTS FOR REDUCING ACTIVATION-INDUCED PD-1 EXPRESSION ON T CELLS AND METHODS OF USE” (WISCONSIN ALUMNI RESEARCH FOUNDATION, priority 2016, published 2024)
At least one compound was matched to its structure with a doubt left.

Test system: OT-1 transgenic splenocytes
Assay: In vitro stimulation of OT-1 splenocytes with peptide antigen in the presence of TLR agonists, surface markers by flow cytometry
Format: cell-based, mice
Details: in words; SIINFEKL plus TLR agonist versus antigen alone, up to 4 days
Protocol: T cell activation was measured by the levels of marker 4-1BB (a/k/a CD137, a member of the TNF receptor superfamily). The level of PD-1 expression was also assessed in these cells (FIG. 1B).
There was no difference in LAG3 expression between the control cells and cells treated with any of the assayed TLR agonists.
OT-1 transgenic splenocytes were treated with high affinity antigen in combination with Pam3CSK4 (TLR1 and 2 agonist), Gardiquimod (TLR7 agonist) or no TLR agonist and the levels of different checkpoint markers or T cell stimulation (measured by 4-1BB, FIG. 5) were assayed. The checkpoint markers BTLA (FIG. 6), VISTA (FIG. 7), CD160 (FIG. 8) and CD244.2 (FIG. 9) were assayed.
TLR stimulation at the time of T-cell activation in vitro affects expression of PD-1. […] Given these findings, we evaluated expression of multiple other T-cell checkpoint molecules following T-cell activation in the presence of TLR ligands. […]
In vitro T-cell stimulation: Spleens were collected from OT-1 mice, processed through a mesh screen, and splenocytes were isolated by centrifugation after red blood cell osmotic lysis with ammonium chloride/[…] lysis buffer (0.15 M NH4Cl, 10 mM KHCO3, 0.1 mM EDTA). […] After all time points were collected, cells from all times were thawed, rinsed and resuspended in PBS+3% FCS+1 mM EDTA and analyzed by flow cytometry. […]

CCOCc1nc2c(N)nc3ccccc3c2n1CC(C)(C)O [R848, Resiquimod]
PD-1 expression on activated T cells: significantly reduced
